Binding data for two molecules are collected here from publication PMC4826214.

The target of the experiment is T1, CD95 (death receptor Fas, APO-1) (human (endogenous in DU145)), P25445.
T1 chain: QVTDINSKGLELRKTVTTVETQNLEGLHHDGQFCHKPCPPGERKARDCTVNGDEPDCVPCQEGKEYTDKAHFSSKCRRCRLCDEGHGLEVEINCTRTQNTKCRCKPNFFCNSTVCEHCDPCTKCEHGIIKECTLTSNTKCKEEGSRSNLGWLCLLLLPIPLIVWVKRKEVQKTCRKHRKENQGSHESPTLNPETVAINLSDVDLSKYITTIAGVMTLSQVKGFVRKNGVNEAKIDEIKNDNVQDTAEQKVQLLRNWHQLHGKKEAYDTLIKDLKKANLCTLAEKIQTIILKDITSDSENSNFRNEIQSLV
Kind of experiment: co-IP; 400 ug total protein of DU145 cells (RIPA buffer) immunoprecipitated with a rabbit CD95 antibody; SDS-PAGE and Western blot with mouse caspase-8 (active format) and FADD antibodies; cells treated 48 hr with Sild (10 uM) and/or DOX (0.5 uM). Conditions: remark: other sources report otherwise.

Results are given in words; binding and its absence hold for the method and conditions named. In cells and extracts the contact can be indirect. Some entries that bind do so weakly or less than the wild type.

B1: Fas-associated death domain-containing protein (FADD), Q13158 1-208 (protein)
chain: MDPFLVLLHSVSSSLSSSELTELKFLCLGRVGKRKLERVQSGLDLFSMLLEQNDLEPGHTELLRELLASLRRHDLLRRVDDFEAGAAAGAAPGEEDLCAAFNVICDNVGKDWRRLARQLKVSDTKIDSIEDRYPRNLTERVRESLRIWKNTEKENATVAHLVGALRSCQMNLVADLVQEVQQARDLQNRSGAMSPMSWNSDASTSEAS
As for B1, the binding entry is on record as “binds”.

B2: caspase-8, active form (p26/24 and p18), Q14790 1-479 (enzyme)
chain: MDFSRNLYDIGEQLDSEDLASLKFLSLDYIPQRKQEPIKDALMLFQRLQEKRMLEESNLSFLKELLFRINRLDLLITYLNTRKEEMERELQTPGRAQISAYRVMLYQISEEVSRSELRSFKFLLQEEISKCKLDDDMNLLDIFIEMEKRVILGEGKLDILKRVCAQINKSLLKIINDYEEFSKERSSSLEGSPDEFSNGEELCGVMTISDSPREQDSESQTLDKVYQMKSKPRGYCLIINNHNFAKAREKVPKLHSIRDRNGTHLDAGALTTTFEELHFEIKPHDDCTVEQIYEILKIYQLMDHSNMDCFICCILSHGDKGIIYGTDGQEAPIYELTSQFTGLKCPSLAGKPKVFFIQACQGDNYQKGIPVETDSEEQPYLEMDLSSPQTRYIPDEADFLLGMATVNNCVSYRNPAEGTWYIQSLCQSLRERCPRGDDILTILTEVNYEVSNKDDKKNMGKQMPQPTFTLRKKLVFPSD
In the case of B2, the binding entry was “binds”.
